Literature values in patent publication US20250241957A1, “INTRA-ERYTHROCYTE DEXAMETHASONE FOR TREATMENT OF ATAXIA-[…]” (priority 2024, published 2025).
At least one structure is not confirmed: it was looked up by name or label, or the drawing left a doubt.

Assays:
[1] = tested on: ATM gene
[2] = tested on: A-T lymphoblastoid cell lines
[3] = tested on: participants with A-T

C[C@@H]1C[C@H]2[C@@H]3CCC4=CC(=O)C=C[C@]4(C)[C@@]3(F)[C@@H](O)C[C@]2(C)[C@@]1(O)C(=O)CO [dexamethasone]
ATM gene splicing [1]: induced alternative ATM gene splicing | Glutathione synthesis and NADPH production [2]: increased levels

C[C@H]1C[C@H]2[C@@H]3CCC4=CC(=O)C=C[C@]4(C)[C@@]3(F)[C@@H](O)C[C@]2(C)[C@@]1(O)C(=O)CO [betamethasone]
Transient neurologic improvement, participants ([3]; betamethasone used for two years, six participants): five out of six | Neurological symptoms ([3]; child with A-T given betamethasone for asthma): significant improvement | Improvement persisted after two years of treatment, participants ([3]; six participants): one
